The exact form of at least one protein or probe is not confirmed. For some assays here: A negative result means that nothing was seen under these conditions. The comparison behind a weaker result is the experiment's own reference, which may not be listed here. At least one verdict was read from the data and is not stated in words by the source.

Protein sequences, listed by entry. Tags and fused reporters are not part of them.
UniProt P25490, whole entry: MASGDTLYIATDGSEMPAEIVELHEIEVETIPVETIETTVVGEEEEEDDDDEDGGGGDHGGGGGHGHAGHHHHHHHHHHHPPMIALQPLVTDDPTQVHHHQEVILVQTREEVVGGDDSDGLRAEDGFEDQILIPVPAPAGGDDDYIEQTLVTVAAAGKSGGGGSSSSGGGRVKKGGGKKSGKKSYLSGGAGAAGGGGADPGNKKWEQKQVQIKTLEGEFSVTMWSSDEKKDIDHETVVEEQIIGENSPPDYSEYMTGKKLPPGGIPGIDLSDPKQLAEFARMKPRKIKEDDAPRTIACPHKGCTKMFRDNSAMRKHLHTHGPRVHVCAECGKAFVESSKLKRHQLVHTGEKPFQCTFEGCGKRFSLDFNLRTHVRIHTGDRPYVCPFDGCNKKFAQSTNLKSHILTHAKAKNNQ

Data on two sequences can be found in article PMC13202173.

The target of series [1] is MBP-mCherry-YY1 (Homo sapiens) (UniProt P25490). The series can be described thus: EMSA. As to conditions: Motif EMSA: 10 mM Tris pH 7.5, 50 mM KCl, DTT, Tween 20, 5 mM MgCl2, ~25 nM probe, room temperature 30 min, G4 EMSA: 10 mM Tris-HCl pH 7.5, 100 mM KCl, 10 uM Zn, recombinant protein, protein details: N-MBP-TEV, C-mCherry, label: 5' IRDye 700 on strand 1.
A further series concerns the target MBP-YY1 (UniProt P25490). The experiment in a line: fluorescence anisotropy. The conditions noted are these: 100 mM KCl, anisotropy: same without glycerol, on ice 30 min, recombinant protein, protein details: MBP (as named in the legends of Fig 5F and 6I), label: 5' IRDye 700 on strand 1, folded or branched DNA.

In the case of “GCCGCCATTTTG (double strand) [YY1 long consensus motif probe]”, the binding result in series [1] (5 mM Mg2+, no polyP) is reported as “binds”; in series [1] (polyP100 (7.5 mM by Methods), 5 mM Mg2+) it was “no binding”; in series [1] (polyP700 (7.5 mM by Methods), 5 mM Mg2+), “binds more weakly”.
On to “AAAGGGTTAGTGTTAGTGTTAGGGAA / TTCCCTAACCCTAACCCTAACCCTTT [human telomere G4 (hTEL) probe]”, for which the binding result was “no binding” in series [1] (polyP100, 10 uM Zn2+, 100 mM KCl, folded or branched DNA); “binds more weakly” in series [1] (polyP700 (1 mM sufficient), 10 uM Zn2+, 100 mM KCl, folded or branched DNA); “binds more weakly” with MBP-YY1 (5 mM polyP100, 10 uM Zn2+); “binds more weakly” with MBP-YY1 (5 mM polyP700, 10 uM Zn2+); “binds” with MBP-YY1 (no polyP, 0.4 uM protein, 10 nM probe, 10 uM Zn2+).
